Measurements: PubChem BioAssay AID1508600 (Functional Genomics Laboratory (NCATS/FGL), 2020)
The whole screen tested about 53,000 sequences, of which about 3,700 (7%) were called active.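 How the source made its calls: active means gene knockdowns whose robust z-score for IL-1 alpha signal is at least 2 or at most -2, so actives lie on both sides; inactive means the rest.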 Some of the results follow.

test: Components of the Cytosolic LPS Sensing Pathway: Gene Identification via Genome-wide siRNA Screen; details: RAW264.7 macrophages, IL-1a HTRF, actives lie on both sides, screened at 100 nM (by protocol), cells primed 5 h with Pam3CSK4 first;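 further: robust z of the log signal after scaling to non-targeting control siRNA wells of the plate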
In short: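 Read-out: IL-1a HTRF on supernatant, divided by plate negative-control median ×100, log-transformed and converted to robust z-score. Cells were RAW264.7 given 100 nM siRNA, Pam3CSK4-primed 5 hours, then LipidA-transfected 24 hour.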

Row | Sequence | z-score
1 | GGCCUUUUCACAACACUAUTT against Zfp958 | inactive: 0.109
2 | GGGACAAGUGAUAAAUUUGTT against Fam91a1 | inactive: -0.424
3 | GGUCGGAACUCAGUUUAUCTT against Abcg2 | inactive: 0.748
4 | CGGUUAUUGUACCUAAAGCTT against Olfr827 | inactive: -0.429
5 | GGCAAACAUUUCAAAUACATT against Tgm4 | active: 2.12
6 | GGAGAAAGAAAUCCUUCUGTT against Bag2 | inactive: 0.219
7 | GGCAUCAAGUUCUAUCUGUTT against Slc6a11 | inactive: -0.704
8 | GCCAUGUGCACUGAAUAUATT against Gfral | inactive: -1.87
9 | GGCUCUGAAUGUCACAACCTT against Il2rb | inactive: -1.33
10 | GGGACCACUGGACAUUGAATT against Cxadr | inactive: -0.00684
11 | GCUAAGAAUAGGAGUUAGATT against Ift57 | inactive: 0.419
12 | GCCCAGAUGGGUUAAUUUCTT against Fzd7 | inactive: -0.218
13 | GGAAGUCUCUGUACAUCUUTT against Chuk | inactive: -0.18
14 | GGGCACCUGACAAAAUUGCTT against Dxo | inactive: -0.503
15 | GCGACACAUAUUAACCAAATT against Wdr48 | inactive: -1.04
16 | CCCUCUAUCACGGCUACUATT against Hspb2 | inactive: -0.665
17 | CGCCAAAAGACAUUGCUCATT against Dync2li1 | inactive: -0.151
18 | GGACAGAAUUGAAAUGCCUTT against Ropn1l | active: -2.08
19 | GGGCAUGAAAUGUUCCUGUTT against Prkcg | inactive: 0.0468
20 | GCAGUGCACGGAUAACUUCTT against Ccbe1 | inactive: 0.883
21 | GGAUGGUGAGGAGAGUUAATT against Col28a1 | inactive: -0.624
22 | GGGAAAGAUAGUUAAUGGATT against Icam4 | inactive: -1.51

Row | Sequence | z-score
23 | GCAUGACAUUCCGAAAACUTT against 4921517D22Rik | inactive: -0.195
24 | GGAGAUUGAGAACACAAGCTT against Hipk2 | active: 2.37
25 | GGACUUCAGCAAAUCCAAGTT against Fam166a | inactive: 1.14
26 | CCUUCUACAAGUGGUGUUGTT against Actl7a | inactive: 1.56
27 | GGCAAAUUUCACCAUCUUATT against Dsc3 | inactive: -0.797
28 | CCUAGCAAAGCUGUUCCACTT against Vapa | inactive: 1.68
29 | GGAGCUUCUACAGUACGAGTT against 4930578I06Rik | inactive: 0.12
30 | GGAGAAGAAACUGGUGAAGTT against Etfb | inactive: -1.36
31 | GCAUGCAUGAUGGAUCUUCTT against Gabrb1 | inactive: 1.56
32 | CGACUGGAAAAAGAUUGGGTT against Ttf1 | inactive: -0.219
33 | GGCAUACACAGUCUUCAAUTT against Txk | inactive: -0.339
34 | GGUCGGUGUUUUAUCUGCUTT against Slc17a9 | active: -3.2
35 | GCUGGUACAAGGUGUUUGATT against Pqbp1 | inactive: 0.825
36 | GGAUGUCUUAGAUGUUUACTT against Mcm7 | inactive: 1.69
37 | GGUUGUGGAACUAGAAUAUTT against Wdr12 | inactive: -1.29
38 | GGAGGAGUCUUGAAUCCAGTT against Yod1 | inactive: -0.122
39 | GGCUGAAAAAAGUGGAGAATT against Sh3bgr | active: 2.12
40 | GAUGAUUGACGACAUGGAATT against Rgs9bp | inactive: 0.656
41 | GGUGUUUUACAUAUCGUAATT against Med20 | inactive: -0.179
42 | GGGAAAAAUUUCUUCUGUUTT against Olfr918 | inactive: 0.357
43 | GGCAGAUGCUAAAAAAGCUTT against Rnf128 | inactive: 1.01
44 | GCUACAACUAGAACAAUUATT against Hook1 | inactive: -0.683

Single values from the entries so far.
z-score with GCUACAACUAGAACAAUUATT against Hook1 reads inactive: -0.683
z-score with GGAAGUCUCUGUACAUCUUTT against Chuk reads inactive: -0.18

(list continues)

Row | Sequence | z-score
45 | GGUACAUCGACUUCCUGUATT against Twist1 | inactive: 0.475
46 | GGACAUCACGCAAAUCGUGTT against Nmnat1 | inactive: 0.615
47 | GGACUUGAUCCCAAAGCUGTT against Mrpl17 | inactive: -1.21
48 | GCUCCGGAAAGUAAGCAGATT against Tnfrsf26 | inactive: 0.259
49 | UCAAUUUGACUGAUCUGCATT against Cyp2j11 | inactive: -0.172
50 | GGAAGGUAUCUGAGGUCCGTT against 2810408A11Rik | inactive: -0.106
51 | GGCCUACCCAAUUCUUAACTT against Ces1g | inactive: -0.0881
52 | GGGUUCAGGGUGGAAAAUGTT against Dntt | inactive: -1.15
53 | GCCAGAGUGUCGAAUAUCATT against Dll4 | inactive: -0.417
54 | GCAGCUGAGAGUGACAUCATT against Atp1a2 | inactive: -1.13
55 | CCAGAUAAUGAACACUUUGTT against Wdr1 | inactive: 0.447
56 | GGAAAAACGGGAUCUGCCATT against A530053G22Rik | inactive: -0.323
57 | CGUUUAUCAAUGUAGGUAATT against Kctd18 | inactive: 0.8
58 | GGCAUUCAAAAGGUAAAAUTT against Grid2 | inactive: -0.515
59 | CGCAUUCCUACCAAAAACCTT against Defb14 | inactive: -1.69
60 | GGCCACAGCAUCAUCAAUGTT against Mxra8 | inactive: -0.608
61 | GCCCUUAGCUUGUGUUAUCTT against Hagh | inactive: -0.518
62 | GGAAAGUCUUGAUGAGUUGTT against Ido2 | inactive: 0.431
63 | GCCAAUUGGAAACUGUGAGTT against Scmh1 | inactive: -1.82
64 | GGAUUUAUGGAAAAUUGGUTT against Zik1 | inactive: 0.00163
65 | GGAGCUUUUAAGAAUGUGGTT against Ireb2 | inactive: -1.57
66 | GGUUGCUGACAAAUGAAAGTT against Fcrla | inactive: 0.383

Pulled one by one from above:
Row | Sequence | z-score
38 | GGAGGAGUCUUGAAUCCAGTT against Yod1 | inactive: -0.122
28 | CCUAGCAAAGCUGUUCCACTT against Vapa | inactive: 1.68
23 | GCAUGACAUUCCGAAAACUTT against 4921517D22Rik | inactive: -0.195

(next part)

Row | Sequence | z-score
67 | GGAACUGAUAGUAAUUGCCTT against Il7 | inactive: 1.23
68 | CCCACAGAUCAGAUGCAUCTT against Abhd6 | inactive: 0.251
69 | CCUUUUUAUCGCUUUACUGTT against Scn10a | inactive: 0.776
70 | GCUCAACCCUCAUUGCUUCTT against Zc3h8 | inactive: -1.95
71 | GCAACAUCUUGGAUUUAGGTT against Ttc34 | inactive: -1.38
72 | GGAAGAUCCUUGGAAAAUUTT against Tmem135 | inactive: 0.235
73 | GGGAUCAAAGAUCAGUUAATT against Pih1d2 | inactive: -0.98
74 | CCGAGAUGCCAAUAAAUGATT against Tcl1 | inactive: -0.371
75 | CCAUCUACCGGAAAAUAACTT against Hdhd5 | inactive: 0.378
76 | GGAAAGAGCAAACAGUUCCTT against Il1f6 | active: -2.09
77 | GGCAUGAAAGCACAAAUGGTT against Czib | inactive: -0.21
78 | CCAUCUCCUUUUCAGGGUGTT against Olfr747 | inactive: -1.83
79 | GGUUUUUAAGUGAUCCUUUTT against Slf2 | inactive: -0.786
80 | GCGUGGUGAUAGAAGAUAUTT against Pcdhgb8 | inactive: -0.981
81 | GUCUUUUAUACUUUGGUGGTT against Olfr1255 | inactive: -1.73
82 | GGAGAAGAUGAGAGAAUUUTT against Tph1 | inactive: 1.34
83 | GGUUCUUAUUUCACUAUUCTT against Nmu | inactive: -0.0688
84 | GGAAUGCUUUAUAAGUACATT against Tchp | inactive: -1.34
85 | GGGCACUUAUUGCUACCUGTT against Wfs1 | inactive: 1.48
86 | GGUACUUCAUCGAUUCAGCTT against Zfp593 | inactive: -0.561
87 | GGGUUUUGAGAUGUAAUGATT against Marchf8 | inactive: 0.0734
88 | GGAAGUGGAGGAAAAGAAGTT against Pdcd7 | active: -2.52

Row | Sequence | z-score
89 | GGUCUGUAUGUCAUUUAUCTT against Ywhag | inactive: -0.208
90 | GGCUUUUGAAAAUGACUACTT against Galnt5 | inactive: 0.198
91 | GGAUAACCAUAUACUUCUGTT against 1110006O24Rik | inactive: 0.191
92 | GGCACUUAUGACACCUACATT against Fkbp10 | inactive: -1.68
93 | GGCAGAUUUAGGGAAAUAATT against Cfap126 | inactive: -0.639
94 | CCCGAUCAUGCAUAGCUGATT against Decr2 | inactive: 1.21
95 | GGCUCACAAGGAAGAGAUCTT against Cstad | inactive: -0.29
96 | GCUAGGUCCCAAUUUUCACTT against Psg29 | inactive: -0.152
97 | GCUUCAUGCAAAAGUCACCTT against Prg3 | inactive: 0.648
98 | CGUACAUUGCUCUUCUUUUTT against Atp2a3 | inactive: 1.17
99 | GGAGAUUGCCAAGCAUAAGTT against Pcyt2 | inactive: -0.918
100 | GGAUAGCUCUAUCAACUCUTT against Serpinb3b | inactive: -0.455
101 | GGCUUUACAGAUGUUAAAUTT against Ak3 | inactive: 0.133
102 | CCACACUGAGUUUUACUACTT against Il22ra1 | inactive: -0.659
103 | GGCAUCACUGAUGAAUGAATT against Pacsin2 | inactive: -0.585
104 | CGAGAAAUCCUGUAAACGUTT against Zfp781 | inactive: -0.873
105 | GGCUUUCCAGUGGAAUUCCTT against Lin9 | inactive: 0.839
106 | CCCGCUCAAGAUCCUGUUUTT against 2310011J03Rik | inactive: -0.231
107 | GGCCCUAGAUGAGCACAAATT against Kcnh3 | active: 2.48
